# Laboratory results as given in patent publication US6482255B1, “Disazodyes for ink jet printing” (Avecia Limited, priority 1997, dated 2002).
# Experiment: Light-fastness of ink jet prints (ΔE / optical density loss after irradiation in Atlas Weatherometer)
# Description: The reflected optical density (ROD) and light-fastness (ΔE) were measured as described in Example 1.
# The ratio of Dyes (A), (B) and (C) in Example 4 may be varied by altering the time and temperature of the ethanolamine condensation step (Example 1, step (iv)). The solubility of a variety of dye compositions in water at 20° C. and pH 9.5 is shown in Table 2 below together with optical density, light fastness (ΔE after 50 hours) and wet-fastness results of prints prepared from these compositions. The prints were prepared by printing an ink formed by dissolving 2.5 parts of each composition in 97.5 parts of a mixture consisting of 88 parts water, 5 parts thiodiglycol, 5 parts 2-pyrrolidone and 2 parts Surfynol 465™ (a non-ionic surfactant) onto the substrate shown in the third column of Table 2 using a Canon 4300 ink jet printer.
compound,measurement,setting,value
CNCCCNc1nc(NCCO)nc(Nc2ccc(/N=N/c3c(N)ccc4cc(S(=O)(=O)O)cc(O)c34)c(S(=O)(=O)O)c2)n1 [Dye (1)],Light-fastness (ΔE @ 50 hrs),Substrate SG = Seiko Epson glossy film,6
same,Light-fastness (ΔE @ 50 hrs),Substrate XA = Xerox 4024 Acid Paper,6.2
